These are yes or no findings as the source states them, for the method shown. Some results given as binding are weak or reduced against the parent protein; the word gives no strength. Tags and fused reporters may be left off the sequences shown.

Amino acid sequences for entries named in this document (tags omitted). A change or cut given only in a name is not applied to a line headed by its entry.
UniProt Q3V6T2: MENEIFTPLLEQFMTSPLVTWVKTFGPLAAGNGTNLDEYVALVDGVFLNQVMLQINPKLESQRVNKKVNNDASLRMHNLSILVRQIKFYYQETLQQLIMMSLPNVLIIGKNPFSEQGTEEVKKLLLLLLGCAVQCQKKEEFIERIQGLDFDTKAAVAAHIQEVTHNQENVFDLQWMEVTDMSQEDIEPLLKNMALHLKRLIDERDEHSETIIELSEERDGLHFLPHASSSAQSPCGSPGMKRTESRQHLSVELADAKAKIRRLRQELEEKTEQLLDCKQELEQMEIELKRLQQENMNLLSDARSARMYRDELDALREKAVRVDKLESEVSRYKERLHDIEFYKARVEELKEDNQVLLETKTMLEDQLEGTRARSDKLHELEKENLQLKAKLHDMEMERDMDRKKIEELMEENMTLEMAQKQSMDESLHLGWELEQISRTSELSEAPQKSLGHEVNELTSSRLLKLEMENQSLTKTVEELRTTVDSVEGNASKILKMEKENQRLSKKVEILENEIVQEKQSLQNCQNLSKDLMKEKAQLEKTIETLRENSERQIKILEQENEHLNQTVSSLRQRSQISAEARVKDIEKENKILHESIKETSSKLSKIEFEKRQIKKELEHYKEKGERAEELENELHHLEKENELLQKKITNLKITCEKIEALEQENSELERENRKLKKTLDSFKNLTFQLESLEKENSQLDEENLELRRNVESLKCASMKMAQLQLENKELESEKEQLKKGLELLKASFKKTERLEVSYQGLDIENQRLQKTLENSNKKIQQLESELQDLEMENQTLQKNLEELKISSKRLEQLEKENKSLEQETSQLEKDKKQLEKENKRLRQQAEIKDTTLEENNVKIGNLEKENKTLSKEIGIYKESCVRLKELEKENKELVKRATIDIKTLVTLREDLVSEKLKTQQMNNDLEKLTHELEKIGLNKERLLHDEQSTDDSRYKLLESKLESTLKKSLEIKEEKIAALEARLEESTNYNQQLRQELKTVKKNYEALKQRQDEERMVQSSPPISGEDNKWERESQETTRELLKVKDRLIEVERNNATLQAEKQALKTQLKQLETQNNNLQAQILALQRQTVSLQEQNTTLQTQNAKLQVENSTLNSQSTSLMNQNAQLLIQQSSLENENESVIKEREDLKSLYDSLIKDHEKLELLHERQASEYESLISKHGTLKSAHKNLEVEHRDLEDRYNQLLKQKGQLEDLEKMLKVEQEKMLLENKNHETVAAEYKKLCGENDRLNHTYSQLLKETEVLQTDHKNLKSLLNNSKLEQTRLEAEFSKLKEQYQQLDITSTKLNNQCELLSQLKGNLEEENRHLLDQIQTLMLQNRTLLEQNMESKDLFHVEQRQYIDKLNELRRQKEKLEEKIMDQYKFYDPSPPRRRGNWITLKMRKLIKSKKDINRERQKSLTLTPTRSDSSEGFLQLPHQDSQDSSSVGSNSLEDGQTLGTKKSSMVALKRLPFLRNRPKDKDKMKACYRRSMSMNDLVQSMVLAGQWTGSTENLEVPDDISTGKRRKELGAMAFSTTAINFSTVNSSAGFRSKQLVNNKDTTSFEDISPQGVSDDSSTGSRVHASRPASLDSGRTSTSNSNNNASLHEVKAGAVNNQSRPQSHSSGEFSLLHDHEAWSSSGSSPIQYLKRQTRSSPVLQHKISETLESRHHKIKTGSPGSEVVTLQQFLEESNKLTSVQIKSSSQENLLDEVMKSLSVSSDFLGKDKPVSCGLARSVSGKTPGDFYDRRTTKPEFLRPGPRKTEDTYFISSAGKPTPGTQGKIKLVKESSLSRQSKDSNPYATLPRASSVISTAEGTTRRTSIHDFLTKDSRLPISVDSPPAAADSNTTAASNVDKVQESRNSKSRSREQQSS

The text below walks through data of PMC12057046, “Elucidation of short linear motif-based interactions of the MIT and rhodanese domains of the ubiquitin-specific protease 8” (Biology Direct, 2025).

This assay has as its target T1, Girdin 1192-1207 peptide, cellulose-bound (SPOT array) (human) (UniProt Q3V6T2).
T1 sequence (peptide): EVEHRDLEDRYNQLLK
The assay is described as follows: peptide or protein array; SPOT array, cellulose-bound peptides; GST-tagged MIT domain 100 µM in 5% skim milk in TBST overnight at 4 °C; detected with HRP-conjugated anti-GST antibody; both purified.

B1: GST-tagged USP8 MIT domain (1-142) (domain or fragment, UniProt P40818 1-142)
chain: MPAVASVPKELYLSSSLKDLNKKTEVKPEKISTKSYVHSALKIFKTAEECRLDRDEERAYVLYMKYVTVYNLIKKRPDFKQQQDYFHSILGPGNIKKAVEEAERLSESLKLRYEEAEVRKKLEEKDRQEEAQRLQQKRQETG
Regarding B1, the binding result is given as “binds”.
